According to the supplement of paper PMC10849652:
The other results are listed elsewhere or left out.

Chains of the proteins cited; added tags and fusions are not shown. Lines headed by an entry give the natural chain unless they say otherwise; changes in a name come on top.
UniProt P51580: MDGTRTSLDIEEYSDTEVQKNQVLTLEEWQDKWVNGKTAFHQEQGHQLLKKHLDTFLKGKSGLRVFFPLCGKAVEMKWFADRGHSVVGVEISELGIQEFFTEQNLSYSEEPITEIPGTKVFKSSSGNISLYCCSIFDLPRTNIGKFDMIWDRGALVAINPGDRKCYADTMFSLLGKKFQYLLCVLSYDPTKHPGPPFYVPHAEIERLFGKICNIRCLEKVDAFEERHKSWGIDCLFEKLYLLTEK
UniProt Q9UJA5: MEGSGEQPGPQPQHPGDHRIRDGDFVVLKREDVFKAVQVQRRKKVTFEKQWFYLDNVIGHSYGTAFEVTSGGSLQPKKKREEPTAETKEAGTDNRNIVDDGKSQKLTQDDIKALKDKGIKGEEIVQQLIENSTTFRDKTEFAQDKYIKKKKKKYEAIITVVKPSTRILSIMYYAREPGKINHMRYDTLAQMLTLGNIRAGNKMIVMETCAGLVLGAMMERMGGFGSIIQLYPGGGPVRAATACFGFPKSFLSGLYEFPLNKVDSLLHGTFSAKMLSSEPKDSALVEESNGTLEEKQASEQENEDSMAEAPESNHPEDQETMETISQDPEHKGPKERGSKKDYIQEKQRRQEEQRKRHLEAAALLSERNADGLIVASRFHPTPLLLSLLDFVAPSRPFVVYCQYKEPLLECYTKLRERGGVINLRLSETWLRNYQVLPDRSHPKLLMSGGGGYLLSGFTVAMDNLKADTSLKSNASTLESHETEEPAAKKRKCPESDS
UniProt Q53FA7: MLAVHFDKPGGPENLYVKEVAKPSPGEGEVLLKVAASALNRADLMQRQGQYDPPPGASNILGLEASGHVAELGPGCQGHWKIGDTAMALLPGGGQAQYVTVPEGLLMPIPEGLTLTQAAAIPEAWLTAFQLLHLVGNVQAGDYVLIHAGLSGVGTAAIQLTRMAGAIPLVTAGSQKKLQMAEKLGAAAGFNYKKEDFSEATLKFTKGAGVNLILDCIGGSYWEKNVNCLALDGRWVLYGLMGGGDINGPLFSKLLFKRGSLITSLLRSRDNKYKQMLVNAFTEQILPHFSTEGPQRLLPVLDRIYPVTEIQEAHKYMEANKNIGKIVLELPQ
UniProt Q9NXH9: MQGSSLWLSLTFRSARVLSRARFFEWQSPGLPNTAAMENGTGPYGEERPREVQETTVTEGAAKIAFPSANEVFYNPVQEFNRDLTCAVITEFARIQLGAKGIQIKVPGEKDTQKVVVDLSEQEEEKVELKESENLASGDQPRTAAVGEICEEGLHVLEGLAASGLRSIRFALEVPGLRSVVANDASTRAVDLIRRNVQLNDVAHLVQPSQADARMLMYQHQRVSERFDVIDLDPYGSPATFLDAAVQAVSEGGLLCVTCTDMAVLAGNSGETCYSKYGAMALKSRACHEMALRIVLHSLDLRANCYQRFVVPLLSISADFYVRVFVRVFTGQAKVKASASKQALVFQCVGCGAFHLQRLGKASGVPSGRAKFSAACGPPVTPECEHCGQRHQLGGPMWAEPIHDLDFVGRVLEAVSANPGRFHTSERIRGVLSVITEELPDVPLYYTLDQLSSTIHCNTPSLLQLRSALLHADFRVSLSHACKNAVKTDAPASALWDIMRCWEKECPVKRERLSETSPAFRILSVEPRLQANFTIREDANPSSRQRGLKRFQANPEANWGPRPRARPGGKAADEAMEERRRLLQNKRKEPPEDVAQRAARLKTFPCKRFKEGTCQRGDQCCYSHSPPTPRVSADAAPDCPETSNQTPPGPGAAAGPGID
UniProt Q9Y4K3: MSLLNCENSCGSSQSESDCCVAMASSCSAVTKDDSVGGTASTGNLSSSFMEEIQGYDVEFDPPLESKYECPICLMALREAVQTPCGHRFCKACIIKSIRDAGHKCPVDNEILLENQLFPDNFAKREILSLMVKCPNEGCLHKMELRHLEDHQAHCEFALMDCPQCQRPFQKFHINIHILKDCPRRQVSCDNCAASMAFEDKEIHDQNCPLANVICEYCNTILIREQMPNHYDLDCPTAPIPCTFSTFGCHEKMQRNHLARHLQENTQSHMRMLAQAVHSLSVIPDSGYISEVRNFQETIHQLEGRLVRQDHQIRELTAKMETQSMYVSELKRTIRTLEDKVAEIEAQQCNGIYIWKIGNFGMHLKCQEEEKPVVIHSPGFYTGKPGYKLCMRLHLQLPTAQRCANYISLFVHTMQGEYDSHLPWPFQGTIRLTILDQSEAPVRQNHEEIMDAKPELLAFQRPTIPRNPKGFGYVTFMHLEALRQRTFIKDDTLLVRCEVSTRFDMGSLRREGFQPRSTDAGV
UniProt Q15714: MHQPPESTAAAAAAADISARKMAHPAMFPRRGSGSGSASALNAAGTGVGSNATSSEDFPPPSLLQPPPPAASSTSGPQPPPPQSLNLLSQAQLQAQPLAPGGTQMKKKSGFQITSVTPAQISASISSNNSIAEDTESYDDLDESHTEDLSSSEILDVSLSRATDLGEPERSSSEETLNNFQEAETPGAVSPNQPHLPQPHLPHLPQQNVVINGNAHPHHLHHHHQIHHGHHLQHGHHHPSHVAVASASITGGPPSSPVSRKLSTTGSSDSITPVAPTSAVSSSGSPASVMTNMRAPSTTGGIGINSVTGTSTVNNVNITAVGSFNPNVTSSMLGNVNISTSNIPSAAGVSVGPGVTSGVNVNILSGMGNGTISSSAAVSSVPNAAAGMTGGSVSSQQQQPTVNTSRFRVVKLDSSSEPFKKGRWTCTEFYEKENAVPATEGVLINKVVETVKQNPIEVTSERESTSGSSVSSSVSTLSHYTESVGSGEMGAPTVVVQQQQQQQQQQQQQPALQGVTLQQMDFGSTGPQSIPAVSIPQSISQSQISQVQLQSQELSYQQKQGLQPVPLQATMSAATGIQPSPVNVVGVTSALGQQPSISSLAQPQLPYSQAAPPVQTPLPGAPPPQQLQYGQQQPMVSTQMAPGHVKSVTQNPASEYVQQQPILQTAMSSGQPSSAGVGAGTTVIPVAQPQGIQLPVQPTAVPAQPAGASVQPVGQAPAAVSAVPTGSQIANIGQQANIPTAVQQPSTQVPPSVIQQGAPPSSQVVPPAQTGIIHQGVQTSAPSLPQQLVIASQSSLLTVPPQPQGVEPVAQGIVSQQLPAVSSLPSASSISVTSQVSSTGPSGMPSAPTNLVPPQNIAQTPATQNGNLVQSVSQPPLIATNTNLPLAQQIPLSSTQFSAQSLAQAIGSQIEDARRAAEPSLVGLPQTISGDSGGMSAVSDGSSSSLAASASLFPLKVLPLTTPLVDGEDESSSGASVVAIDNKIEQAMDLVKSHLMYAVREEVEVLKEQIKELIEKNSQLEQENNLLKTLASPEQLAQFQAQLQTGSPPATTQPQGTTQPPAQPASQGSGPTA
UniProt Q9ULW0, whole entry, looked up: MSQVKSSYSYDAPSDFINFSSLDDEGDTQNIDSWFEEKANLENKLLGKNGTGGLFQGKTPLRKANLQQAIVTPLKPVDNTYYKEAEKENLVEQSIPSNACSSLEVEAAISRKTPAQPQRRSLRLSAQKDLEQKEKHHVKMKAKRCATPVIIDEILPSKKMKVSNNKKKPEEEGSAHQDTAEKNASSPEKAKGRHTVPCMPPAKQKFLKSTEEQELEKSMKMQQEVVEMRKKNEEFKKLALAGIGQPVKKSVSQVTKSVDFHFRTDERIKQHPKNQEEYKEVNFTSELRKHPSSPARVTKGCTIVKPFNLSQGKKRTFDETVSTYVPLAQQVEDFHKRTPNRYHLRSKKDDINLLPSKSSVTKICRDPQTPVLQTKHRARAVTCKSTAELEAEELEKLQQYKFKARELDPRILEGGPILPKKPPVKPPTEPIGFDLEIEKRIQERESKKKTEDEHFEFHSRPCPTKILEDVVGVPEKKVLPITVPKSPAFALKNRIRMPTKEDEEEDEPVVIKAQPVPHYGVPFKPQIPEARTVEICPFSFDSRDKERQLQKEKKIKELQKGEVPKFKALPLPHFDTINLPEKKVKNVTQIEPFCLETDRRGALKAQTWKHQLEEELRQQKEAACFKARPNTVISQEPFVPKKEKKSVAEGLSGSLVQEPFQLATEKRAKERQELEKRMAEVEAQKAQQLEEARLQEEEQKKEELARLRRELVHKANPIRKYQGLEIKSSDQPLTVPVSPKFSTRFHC
UniProt Q9H497: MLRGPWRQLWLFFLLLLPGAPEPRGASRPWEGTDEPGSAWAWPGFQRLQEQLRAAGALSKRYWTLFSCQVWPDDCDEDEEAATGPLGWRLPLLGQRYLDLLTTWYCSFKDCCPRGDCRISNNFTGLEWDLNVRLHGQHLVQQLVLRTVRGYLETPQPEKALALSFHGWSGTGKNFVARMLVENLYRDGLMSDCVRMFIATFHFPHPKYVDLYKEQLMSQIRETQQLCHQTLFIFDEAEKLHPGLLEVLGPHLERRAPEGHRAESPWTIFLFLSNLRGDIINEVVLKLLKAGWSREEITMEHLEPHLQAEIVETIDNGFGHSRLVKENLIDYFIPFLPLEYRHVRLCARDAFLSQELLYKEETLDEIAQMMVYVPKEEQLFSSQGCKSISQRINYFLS
UniProt Q5JU69: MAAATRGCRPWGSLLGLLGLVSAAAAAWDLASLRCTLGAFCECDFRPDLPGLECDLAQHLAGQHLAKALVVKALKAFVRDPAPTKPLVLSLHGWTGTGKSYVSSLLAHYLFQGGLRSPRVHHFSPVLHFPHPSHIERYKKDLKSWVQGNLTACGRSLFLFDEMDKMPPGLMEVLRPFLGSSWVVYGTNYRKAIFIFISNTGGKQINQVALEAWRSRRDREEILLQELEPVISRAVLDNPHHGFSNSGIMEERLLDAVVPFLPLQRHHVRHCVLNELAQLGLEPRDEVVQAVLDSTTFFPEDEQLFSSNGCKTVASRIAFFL
UniProt O96008: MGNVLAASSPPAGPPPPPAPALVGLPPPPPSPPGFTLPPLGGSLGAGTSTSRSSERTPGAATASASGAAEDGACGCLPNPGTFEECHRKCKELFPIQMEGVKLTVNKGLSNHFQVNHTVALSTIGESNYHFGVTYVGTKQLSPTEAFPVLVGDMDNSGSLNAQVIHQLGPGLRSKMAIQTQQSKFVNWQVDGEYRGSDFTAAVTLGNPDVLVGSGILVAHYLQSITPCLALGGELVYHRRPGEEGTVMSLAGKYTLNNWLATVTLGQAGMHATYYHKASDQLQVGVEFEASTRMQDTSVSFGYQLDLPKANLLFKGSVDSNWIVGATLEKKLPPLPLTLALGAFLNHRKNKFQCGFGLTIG
UniProt Q14258, whole entry, looked up: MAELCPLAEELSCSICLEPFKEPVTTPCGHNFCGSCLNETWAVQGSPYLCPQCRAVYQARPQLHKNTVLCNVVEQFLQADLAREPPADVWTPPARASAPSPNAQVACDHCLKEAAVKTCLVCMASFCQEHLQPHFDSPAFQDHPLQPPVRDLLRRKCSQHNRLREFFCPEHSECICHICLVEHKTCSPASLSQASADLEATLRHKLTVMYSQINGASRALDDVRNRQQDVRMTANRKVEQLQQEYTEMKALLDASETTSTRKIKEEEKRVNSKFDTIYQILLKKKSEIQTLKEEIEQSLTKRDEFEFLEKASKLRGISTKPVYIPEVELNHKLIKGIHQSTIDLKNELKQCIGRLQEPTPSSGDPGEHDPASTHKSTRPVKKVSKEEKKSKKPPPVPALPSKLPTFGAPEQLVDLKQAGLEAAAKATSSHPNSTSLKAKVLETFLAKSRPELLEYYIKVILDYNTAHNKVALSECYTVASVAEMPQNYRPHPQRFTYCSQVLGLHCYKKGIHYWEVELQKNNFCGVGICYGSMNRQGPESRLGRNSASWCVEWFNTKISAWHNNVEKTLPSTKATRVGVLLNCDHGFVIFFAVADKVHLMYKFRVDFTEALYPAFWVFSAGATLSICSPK
UniProt P60174, whole entry, looked up: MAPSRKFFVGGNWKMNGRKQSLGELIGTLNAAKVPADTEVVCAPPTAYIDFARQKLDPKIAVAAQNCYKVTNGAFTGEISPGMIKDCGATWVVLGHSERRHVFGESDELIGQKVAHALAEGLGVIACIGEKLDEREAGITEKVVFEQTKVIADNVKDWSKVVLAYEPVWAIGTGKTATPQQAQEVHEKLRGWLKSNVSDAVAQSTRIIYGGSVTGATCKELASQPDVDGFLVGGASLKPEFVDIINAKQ
UniProt P06753, whole entry, looked up: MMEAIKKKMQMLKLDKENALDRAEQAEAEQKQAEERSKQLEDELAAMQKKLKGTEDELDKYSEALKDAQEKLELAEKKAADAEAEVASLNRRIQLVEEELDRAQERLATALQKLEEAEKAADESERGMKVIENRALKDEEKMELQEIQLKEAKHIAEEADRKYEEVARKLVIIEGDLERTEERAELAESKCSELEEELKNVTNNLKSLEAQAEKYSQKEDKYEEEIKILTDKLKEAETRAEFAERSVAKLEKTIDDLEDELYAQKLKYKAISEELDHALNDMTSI

Key:
Assay in all cases: log2 fold change, soluble protein after heating vs DMSO (PISA); higher = thermal stabilisation; K562 cells, 10 uM, 30 min; active = over 0.2 and 3.5 SD of the protein, either way, in both replicates (recomputed)
[1] = compound: CS(=O)(=O)c1ccc(-c2cnc(N)c(C(=O)Nc3ccccc3)n2)cc1
Procedure, shortened: (§1)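 Quantification of soluble protein used TMTpro 16plex LC-MS/MS, with channel sums equalised. Samples were the supernatant after 21,000xg for 90 min of pooled aliquots from K562 cells (2×10^6 cells/mL) treated with 10 μM compound for 30 min, heated for 3 min over 48°C-58°C, and extracted in PBS with 0.5% NP-40 at 4°C. Values, from duplicates, describe thermal stability against control samples on a log2 fold-change scale.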

crizotinib = compound: C[C@@H](Oc1cc(-c2cnn(C3CCNCC3)c2)cnc1N)c1c(Cl)ccc(F)c1Cl [crizotinib]
Procedure, shortened: as §1

[2] = compound: C[C@@H]1COCCN1C2=NC(=NC(=C2)C3(CC3)S(=O)(=O)C)C4=C5C=CNC5=CC=C4
Procedure, shortened: as §1

[3] = compound: C[C@H](C1=CC=C(C=C1)C(=O)NC2=C3C=CNC3=NC=C2)N
Procedure, shortened: as §1

duvelisib = compound: C[C@H](Nc1ncnc2nc[nH]c12)c1cc2cccc(Cl)c2c(=O)n1-c1ccccc1 [duvelisib]
Procedure, shortened: as §1

gandotinib = compound: Cc1cc(Nc2cc(CN3CCOCC3)c3nc(C)c(Cc4ccc(Cl)cc4F)n3n2)n[nH]1 [gandotinib]
Procedure, shortened: as §1

tozasertib = compound: Cc1cc(Nc2cc(N3CCN(C)CC3)nc(Sc3ccc(NC(=O)C4CC4)cc3)n2)n[nH]1 [tozasertib]
Procedure, shortened: as §1

[4] = compound: Cc1cc(SCc2sc(-c3ccc(C(F)(F)F)cc3)nc2C)ccc1OCC(=O)O
Procedure, shortened: as §1

doramapimod = compound: Cc1ccc(-n2nc(C(C)(C)C)cc2NC(=O)Nc2ccc(OCCN3CCOCC3)c3ccccc23)cc1 [doramapimod]
Procedure, shortened: as §1

ispinesib = compound: Cc1ccc(C(=O)N(CCCN)[C@@H](c2nc3cc(Cl)ccc3c(=O)n2Cc2ccccc2)C(C)C)cc1 [ispinesib]
Procedure, shortened: as §1

bafetinib = compound: Cc1ccc(NC(=O)c2ccc(CN3CC[C@H](N(C)C)C3)c(C(F)(F)F)c2)cc1Nc1nccc(-c2cncnc2)n1 [bafetinib]
Procedure, shortened: as §1

[5] = compound: Cc1cccc(CC(=O)N2CCc3c2ccc(-c2cn(C)c4ncnc(N)c24)c3F)n1
Procedure, shortened: as §1

nilotinib = compound: Cc1cn(-c2cc(NC(=O)c3ccc(C)c(Nc4nccc(-c5cccnc5)n4)c3)cc(C(F)(F)F)c2)cn1 [nilotinib]
Procedure, shortened: as §1

[6] = compound: Cc1nc(Nc2n[nH]c3c2CN(C(=O)N[C@H](CN(C)C)c2ccccc2)C3(C)C)c2sccc2n1
Procedure, shortened: as §1

dasatinib = compound: Cc1nc(Nc2ncc(C(=O)Nc3c(C)cccc3Cl)s2)cc(N2CCN(CCO)CC2)n1 [dasatinib]
Procedure, shortened: as §1

[7] = compound: Cc1ncc(-c2ccnc(Nc3ccc(S(C)(=O)=O)cc3)n2)n1C(C)C
Procedure, shortened: as §1

[8] = compound: Cn1cc(-c2ccc3c(c2)CCN3C(=O)Cc2cccc(C(F)(F)F)c2)c2c(N)ncnc21
Procedure, shortened: as §1

[9] = compound: Cn1cc(-c2ccc3nnc(C(F)(F)c4ccc5ncccc5c4)n3n2)cn1
Procedure, shortened: as §1

tipifarnib = compound: Cn1cncc1[C@@](N)(c1ccc(Cl)cc1)c1ccc2c(c1)c(-c1cccc(Cl)c1)cc(=O)n2C [tipifarnib]
Procedure, shortened: as §1

mubritinib = compound: FC(F)(F)c1ccc(/C=C/c2nc(COc3ccc(CCCCn4ccnn4)cc3)co2)cc1 [mubritinib]
Procedure, shortened: as §1

Measured: log2 fold change

TPMT (UniProt P51580)
inactive: [1] 0.011 | crizotinib 0.087 | [2] 0.045 | [3] -0.063 | duvelisib 0.055 | gandotinib 0 | tozasertib 0.011 | [4] -0.028 | doramapimod -0.06 | ispinesib 0.022 | bafetinib -0.035 | [5] 0.023 | nilotinib 0.053 | [6] -0.052 | dasatinib 0.013 | [7] 0.01 | [8] 0.049 | [9] 0.016 | tipifarnib -0.047 | mubritinib 0.026

TRMT6 (UniProt Q9UJA5)
inactive: [1] -0.052 | crizotinib -0.053 | [2] -0.164 | [3] 0.326 | duvelisib -0.043 | gandotinib 0.111 | tozasertib -0.017 | [4] -0.019 | doramapimod 0.113 | ispinesib -0.221 | bafetinib -0.031 | [5] 0.03 | nilotinib -0.006 | [6] 0.022 | dasatinib 0.114 | [7] -0.029 | [8] -0.046 | [9] -0.028 | tipifarnib 0.098 | mubritinib -0.059

TP53I3 (UniProt Q53FA7)
inactive: [1] 0.055 | crizotinib 0.042 | [2] -0.066 | [3] -0.087 | duvelisib -0.016 | gandotinib 0.081 | tozasertib -0.022 | [4] -0.095 | doramapimod 0.03 | ispinesib -0.007 | bafetinib -0.029 | [5] -0.035 | nilotinib 0.036 | [6] -0.001 | dasatinib 0.049 | [7] 0.016 | [8] -0.042 | [9] 0.044 | tipifarnib 0.08 | mubritinib 0.058

Random excerpt: two records from the list.
TP53I3 (UniProt Q53FA7)
inactive: [1] 0.055 | crizotinib 0.042 | [2] -0.066 | [3] -0.087 | duvelisib -0.016 | gandotinib 0.081 | tozasertib -0.022 | [4] -0.095 | doramapimod 0.03 | ispinesib -0.007 | bafetinib -0.029 | [5] -0.035 | nilotinib 0.036 | [6] -0.001 | dasatinib 0.049 | [7] 0.016 | [8] -0.042 | [9] 0.044 | tipifarnib 0.08 | mubritinib 0.058

TPMT (UniProt P51580)
inactive: [1] 0.011 | crizotinib 0.087 | [2] 0.045 | [3] -0.063 | duvelisib 0.055 | gandotinib 0 | tozasertib 0.011 | [4] -0.028 | doramapimod -0.06 | ispinesib 0.022 | bafetinib -0.035 | [5] 0.023 | nilotinib 0.053 | [6] -0.052 | dasatinib 0.013 | [7] 0.01 | [8] 0.049 | [9] 0.016 | tipifarnib -0.047 | mubritinib 0.026

Further results:

TRMT1 (UniProt Q9NXH9)
inactive: [1] -0.001 | crizotinib 0.029 | [2] 0.022 | [3] 0 | duvelisib 0.02 | gandotinib 0.023 | tozasertib -0.042 | [4] -0.047 | doramapimod -0.035 | ispinesib 0.015 | bafetinib -0.04 | [5] -0.006 | nilotinib 0 | [6] -0.006 | dasatinib 0.011 | [7] -0.045 | [8] 0.02 | [9] 0.024 | tipifarnib -0.035 | mubritinib 0.033

TRAF6 (UniProt Q9Y4K3)
inactive: [1] 0.002 | crizotinib 0.013 | [2] -0.024 | [3] -0.026 | duvelisib -0.038 | gandotinib -0.08 | tozasertib -0.021 | [4] 0.047 | doramapimod 0.033 | ispinesib 0.012 | bafetinib -0.028 | [5] 0.04 | nilotinib -0.03 | [6] -0.013 | dasatinib -0.004 | [7] 0.032 | [8] 0.006 | [9] -0.16 | tipifarnib 0.015 | mubritinib 0.037

TSC22D1 (UniProt Q15714)
inactive: [1] -0.016 | crizotinib 0.008 | [2] 0.025 | [3] -0.06 | duvelisib -0.002 | gandotinib -0.017 | tozasertib 0.066 | [4] 0.084 | doramapimod -0.004 | ispinesib -0.001 | bafetinib -0.074 | [5] -0.004 | nilotinib 0.021 | [6] -0.005 | dasatinib -0.003 | [7] 0.017 | [8] 0.034 | [9] -0.016 | tipifarnib -0.026 | mubritinib 0.068

TPCN1 isoform 3 (UniProt Q9ULQ1)
inactive: [1] 0.104 | crizotinib -0.023 | [2] 0.064 | [3] -0.036 | duvelisib 0.125 | gandotinib 0 | tozasertib -0.01 | [4] -0.034 | doramapimod 0.03 | ispinesib -0.255 | bafetinib 0 | [5] -0.125 | nilotinib -0.186 | [6] -0.059 | dasatinib -0.02 | [7] 0.068 | [8] 0.02 | [9] 0.069 | tipifarnib 0.055 | mubritinib 0.064

TRAPPC9 isoform 2 (UniProt Q96Q05)
inactive: [1] 0.05 | crizotinib -0.096 | [2] 0.033 | [3] 0.017 | duvelisib 0.04 | gandotinib -0.049 | tozasertib 0.038 | [4] 0.001 | doramapimod 0.031 | ispinesib -0.014 | bafetinib 0.016 | [5] 0.047 | nilotinib -0.035 | [6] 0.031 | dasatinib -0.107 | [7] -0.006 | [8] -0.006 | [9] -0.011 | tipifarnib 0.019 | mubritinib 0.124

TPX2 (UniProt Q9ULW0)
inactive: [1] 0.007 | crizotinib -0.122 | [2] 0.032 | [3] 0.019 | duvelisib -0.049 | gandotinib -0.071 | tozasertib -0.047 | [4] -0.024 | doramapimod 0.041 | ispinesib -0.131 | bafetinib -0.013 | [5] -0.017 | nilotinib 0.025 | [6] 0.176 | dasatinib 0.159 | [7] -0.11 | [8] -0.025 | [9] -0.038 | tipifarnib 0.1 | mubritinib -0.051

TRIP13 (UniProt Q15645)
inactive: [1] -0.024 | crizotinib -0.043 | [2] 0.067 | [3] -0.111 | duvelisib 0.044 | gandotinib -0.128 | tozasertib -0.006 | [4] -0.014 | doramapimod -0.001 | ispinesib -0.032 | bafetinib -0.087 | [5] 0.108 | nilotinib -0.089 | [6] -0.065 | dasatinib -0.081 | [7] -0.031 | [8] 0.024 | [9] 0.053 | tipifarnib 0 | mubritinib 0.029

TOR3A (UniProt Q9H497)
inactive: [1] 0.025 | crizotinib -0.014 | [2] 0.009 | [3] 0.079 | duvelisib -0.018 | gandotinib 0.025 | tozasertib -0.022 | [4] -0.016 | doramapimod 0.03 | ispinesib -0.039 | bafetinib -0.094 | [5] 0.025 | nilotinib -0.17 | [6] 0.02 | dasatinib -0.049 | [7] -0.073 | [8] -0.035 | [9] 0.046 | tipifarnib 0.017 | mubritinib -0.062

TOR2A (UniProt Q5JU69)
inactive: [1] 0.145 | crizotinib 0.042 | [2] 0.036 | [3] 0.053 | duvelisib 0.056 | gandotinib 0.168 | tozasertib 0.024 | [4] -0.179 | doramapimod 0.039 | ispinesib 0.052 | bafetinib -0.062 | [5] -0.049 | nilotinib -0.022 | [6] -0.018 | dasatinib 0.041 | [7] -0.007 | [8] 0.254 | [9] -0.047 | tipifarnib 0.089 | mubritinib -0.049

TOMM40 (UniProt O96008)
inactive: [1] -0.025 | crizotinib 0.012 | [2] -0.002 | [3] -0.054 | duvelisib 0.021 | gandotinib -0.03 | tozasertib 0.016 | [4] -0.002 | doramapimod 0.029 | ispinesib 0.013 | bafetinib 0.011 | [5] 0.015 | nilotinib -0.001 | [6] 0.026 | dasatinib 0.038 | [7] -0.025 | [8] 0.023 | [9] -0.002 | tipifarnib -0.001 | mubritinib 0.029

TRIM25 (UniProt Q14258)
inactive: [1] -0.056 | crizotinib 0.031 | [2] -0.312 | [3] 0.13 | duvelisib -0.061 | gandotinib 0.135 | tozasertib 0.028 | [4] 0.117 | doramapimod 0.138 | ispinesib -0.061 | bafetinib 0.143 | [5] -0.023 | nilotinib -0.007 | [6] -0.016 | dasatinib -0.06 | [7] 0.14 | [8] -0.218 | [9] -0.168 | tipifarnib 0.018 | mubritinib -0.148

TPI1 (UniProt P60174)
inactive: [1] 0.014 | crizotinib 0.036 | [2] 0.023 | [3] -0.018 | duvelisib 0.016 | gandotinib -0.015 | tozasertib -0.013 | [4] -0.03 | doramapimod -0.065 | ispinesib 0.013 | bafetinib -0.038 | [5] -0.041 | nilotinib -0.021 | [6] 0.003 | dasatinib 0.042 | [7] -0.01 | [8] 0.029 | [9] 0.015 | tipifarnib -0.028 | mubritinib 0.023

TPM3 isoform 4 (UniProt P06753)
inactive: [1] 0.019 | crizotinib 0.04 | [2] 0.046 | [3] -0.049 | duvelisib -0.008 | gandotinib -0.052 | tozasertib -0.059 | [4] -0.125 | doramapimod -0.03 | ispinesib 0.02 | bafetinib -0.052 | [5] -0.043 | nilotinib 0.024 | [6] 0 | dasatinib 0.035 | [7] -0.055 | [8] 0.055 | [9] 0.037 | tipifarnib 0.037 | mubritinib 0.044
